Over roughly 1,000 compounds, “thermal shift dTm” has its median near 0.19; the highest 2% begin near 1.7. The list shows a part of the results. Calls of active or inactive are those of the source.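 Rule for the calls: active = mean rise in melting temperature of at least 1 degC over same-plate control wells; inactive = below that, where a call was filed.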
molecular target: Sulfhydryl oxidase 1 (Homo sapiens) (UniProt O00391); assay: QSOX1 binders by thermal stabilization, confirmation, QSOX1 inhibitor project, biophysical, protein thermal shift, single concentration (AID 1347422); settings: recombinant hQSOX1 thermal shift, Sypro Orange, at 25 µM, stronger effect = higher value;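 note: dTm is compound Tm minus mean Tm of DMSO-only wells on that plate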

Chains of the proteins cited; added tags and fusions are not shown. Lines headed by an entry give the natural chain unless they say otherwise; changes in a name come on top.
UniProt O00391: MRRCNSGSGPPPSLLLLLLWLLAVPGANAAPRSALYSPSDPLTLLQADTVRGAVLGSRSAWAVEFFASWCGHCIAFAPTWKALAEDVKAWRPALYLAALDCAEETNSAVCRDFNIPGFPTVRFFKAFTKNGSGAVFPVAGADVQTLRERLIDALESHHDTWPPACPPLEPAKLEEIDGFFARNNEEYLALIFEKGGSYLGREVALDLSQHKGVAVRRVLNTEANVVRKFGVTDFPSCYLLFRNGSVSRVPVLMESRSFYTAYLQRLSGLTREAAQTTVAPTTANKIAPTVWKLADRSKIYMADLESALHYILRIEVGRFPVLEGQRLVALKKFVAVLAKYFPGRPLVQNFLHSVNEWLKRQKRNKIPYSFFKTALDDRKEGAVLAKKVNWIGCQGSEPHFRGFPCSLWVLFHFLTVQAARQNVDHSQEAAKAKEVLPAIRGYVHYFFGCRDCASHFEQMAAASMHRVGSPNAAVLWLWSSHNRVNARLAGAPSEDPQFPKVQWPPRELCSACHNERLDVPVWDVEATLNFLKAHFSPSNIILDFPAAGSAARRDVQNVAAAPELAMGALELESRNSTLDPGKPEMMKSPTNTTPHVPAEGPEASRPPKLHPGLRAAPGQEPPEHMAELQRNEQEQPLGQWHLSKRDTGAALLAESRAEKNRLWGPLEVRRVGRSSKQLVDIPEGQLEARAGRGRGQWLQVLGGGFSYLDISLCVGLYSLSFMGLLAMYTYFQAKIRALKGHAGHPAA

SMILES | thermal shift dTm
COC(=O)c1ccc(Nc2nnc(-c3ccc(C)c(S(N)(=O)=O)c3)c3ccccc23)cc1 | 0.15 °C
Nc1ccc(Br)cc1-c1nnc(CCc2ccccc2)o1 | 0.34 °C
COc1cc(NC(=O)Nc2cccc(C)c2)cc(OC)c1OC | 0.32 °C
O=C(Nc1nccs1)c1cccc(NC(=O)c2cc3ccccc3o2)c1 | active: 1.07 °C
CC(=O)Nc1ccc(-c2nnc(-c3cccc(C)c3)o2)cc1 | 0.75 °C
COc1ccccc1CCNC(=S)Nc1ccc(S(N)(=O)=O)cc1 | active: 1.21 °C
CC(C)(C)NC(=O)c1ccc(NC(=O)c2cccc(Cl)c2)cc1 | 0.37 °C
CCCCOc1ccc(/C=C/C(=O)NC(C)c2ccccc2)cc1 (configuration not stated) | 0.35 °C
C=Cc1cccc(NC(=O)c2ccc(OC)cc2)c1 | 0.2 °C
Cc1ccnc(SCc2cc(=O)c3c(=O)n(-c4ccccc4)[nH]c3[nH]2)n1 | 0.19 °C
O=S(=O)(NCc1nc(-c2cccs2)no1)c1ccc2ccccc2c1 | inactive: -0.03 °C
O=C(Nc1cccc(O)c1)c1cc(S(=O)(=O)N2CCOCC2)cs1 | 0.23 °C
CNS(=O)(=O)c1cc(-c2ccc(Nc3ccc(OC)cc3)nn2)ccc1C | active: 1.23 °C
Nc1c(S(=O)(=O)Cc2ccccc2)sc2nc3c(cc12)CCCC3 | 0.15 °C
O=C(NCCO)Nc1ccc(Cl)c(Cl)c1 | inactive: 0 °C
Cc1sc(NC(=O)Cc2ccc(Cl)cc2)nc1-c1ccccc1 | 0.21 °C
CC(=O)Nc1cccc(C(=O)Nc2ccc(Cl)cc2)c1 | inactive: -7.43 °C
Cc1ccc(S(=O)(=O)Nc2ccc(-c3cn4ccsc4n3)cc2)cc1 | active: 1.36 °C
COc1ccc(-c2nc(-c3cccs3)c(-c3cccs3)[nH]2)cc1 | 0.25 °C
CC(Sc1nc2c(c(=O)[nH]1)CCCC2)C(=O)Nc1ccc(Br)cc1 (configuration not stated) | 0.29 °C
O=C(CCC1CCCN(C/C=C/c2ccc(F)cc2)C1)N1CCCC1 (configuration not stated) | 0.18 °C
CCN(Cc1nc(-c2ccccc2C)oc1C)CC1CCCO1 (configuration not stated) | 0.09 °C

SMILES | thermal shift dTm
CCOC(=O)c1ccc(NC(=O)Nc2ccccc2)c(C)c1 | 0.65 °C
Cc1cccc(-c2noc(CNC(=O)c3ccc4ccccc4c3)n2)c1 | inactive: -0.03 °C
O=C(Cn1c(=O)n(-c2ccc(Cl)cc2)c(=O)c2ccccc21)Nc1ccccc1 | 0.15 °C
C=CCN1C(=O)c2[nH]nc(-c3cc(C)c(C)cc3O)c2C1c1ccccc1F (configuration not stated) | 0.02 °C
COCCN(CC1CCN(Cc2ccccc2OC)CC1)C(=O)C1CCOCC1 | 0.19 °C
NC(=O)c1ccc(-c2cccc(-c3ccn[nH]3)c2)s1 | 0.18 °C
Cc1ccccc1OCC(=O)Nc1ccc2[nH]ncc2c1 | inactive: 0 °C
C(=C\c1nc2ccccc2n1Cc1cccc2ccccc12)/c1ccco1 | 0.25 °C
O=C(Nc1nccs1)c1ccc(-c2cccc(Cl)c2Cl)o1 | 0.19 °C
N#Cc1nc(/C=C/c2cccs2)oc1NCCc1ccccc1 | inactive: -37.7 °C
COc1ccc(CCNC2=NC(c3ccc(F)cc3F)=[C+]S2)cc1OC | inactive: -0.13 °C
CCCC(=O)NC(c1ccccc1OC)c1c(OC(=O)COc2ccccc2)ccc2ccccc12 (configuration not stated) | inactive: -0.13 °C
CC(=O)Nc1ccc(NC(=O)c2ccc(NS(C)(=O)=O)cc2)cc1 | 0.33 °C
C/C=C/c1c(F)c(F)c(Oc2cccc(NC(C)=O)c2)c(F)c1F | 0.63 °C
Cc1ccc(C(NC(=O)C(C)C)c2c(O)ccc3ccccc23)cc1 (configuration not stated) | 0.01 °C
Cc1ccccc1NS(=O)(=O)c1ccc2c3c(cccc13)C(=O)N2C | 0.14 °C
Nc1nc(/C=C/c2cccs2)nc(-c2ccccc2O)n1 | 0.83 °C
C=CCSC1=N/C(=C\c2ccc(-c3cccc(Cl)c3)o2)C(=O)S1 | 0.63 °C
CCCc1cc(C(N)=O)c(NC(=O)c2sc3ccccc3c2Cl)s1 | 0.01 °C
N/C(=N\OC(=O)c1ccc2c(c1)OCO2)c1ccc(Cl)cc1 | 0.3 °C
C=CCOc1cccc(NC(=O)COc2ccccc2)c1 | 0.23 °C
CC(C)N(Cc1ccccc1)C(=O)/C=C/c1ccc(Cl)cc1 | 0.72 °C

SMILES | thermal shift dTm
CC(=O)Nc1cccc(NC(=O)c2cccc(NC(=O)c3ccco3)c2)c1 | 0.37 °C
CCSC1=N/C(=C\c2ccc(-c3ccc(Cl)cc3)o2)C(=O)S1 | 0.34 °C
COc1ccc2nc(NC(=O)c3ccc(C)o3)sc2c1 | 0.04 °C
CCc1sc(NC(=O)Cc2ccc(F)cc2)nc1-c1ccccc1 | 0.17 °C
COc1cccc(-c2nn(-c3ccccc3)cc2CN2CCCN(C(C)=O)CC2)c1 | 0.09 °C
COc1ccc(Cl)cc1NC(=O)NNS(=O)(=O)c1ccc2ccccc2c1 | 0.34 °C
Nc1ccc(-c2cccc(-c3ccn[nH]3)c2)cc1F | 0.18 °C
Oc1ccc(Nc2ncnc3ccc(Br)cc23)cc1 | inactive: -0.08 °C
COc1ccc(Cl)cc1Nc1nc(-c2ccccn2)cs1 | 0.1 °C
O=C1CC(CSc2nnnn2-c2ccccc2)=NN1c1nc2ccccc2[nH]1 | 0.43 °C
CCCCOc1ccc(C(=O)NCC2(c3ccccc3)CCCC2)cc1OC | inactive: -0.03 °C
COC(=O)c1ccc(NC(=O)c2ccc(-n3nncc3C)cc2)cc1 | inactive: -0.1 °C
O=C(Nc1ccc(-c2noc(-c3cccs3)n2)cc1)c1ccccc1F | 0.05 °C
O=C(Nc1ccc(NC(=O)C(Cl)Cl)cc1)C(Cl)Cl | 0.4 °C
COc1ccc(NC(=O)NCCc2ccc(Cl)cc2)cc1OC | inactive: -0.04 °C
Cc1cccc(OCC(=O)Nc2cccc(-c3nnc(-c4ccccc4)o3)c2)c1 | 0.68 °C
CCC(=O)Nc1ccc(NC(=O)/C=C/c2ccc(C(C)C)cc2)cc1 | 0.06 °C
Fc1ccc(COc2ccc(-c3cnc4ccccc4n3)cc2)cc1 | 0.58 °C
CC(NC(=O)c1ccc(-c2cc(Cl)ccc2Cl)o1)c1ccccc1 (configuration not stated) | 0.07 °C
COc1cc(CO)cc(I)c1OCc1ccc(Cl)cc1 | 0.11 °C
CC(=O)Nc1cccc(-c2csc(Nc3ccc(O)c(C(=O)O)c3)n2)c1 | 0.72 °C
Oc1cccc(Nc2ncnc3ccc(I)cc23)c1 | 0.44 °C

SMILES | thermal shift dTm
CCSC1=N/C(=C\c2ccc(-c3ccc(F)cc3)o2)C(=O)S1 | 0.53 °C
Cc1cc(I)cc2c1NC(C(=O)O)C1CC=CC21 (configuration not stated) | active: 1.44 °C
Cc1ccc(OCCn2cc(C(=S)N3CCOCC3)c3ccccc32)cc1 | 0.11 °C
CC(C)C(=O)Nc1ccc(C(=O)Nc2ccc(O)cc2)cc1 | 0.13 °C
CCN(CC)S(=O)(=O)c1ccc(OC)c(NC(=O)Nc2ccccc2C)c1 | 0.52 °C
CC(=O)Nc1ccc(CN2Cc3cc(C)ccc3OC(c3ccsc3)C2)cc1 (configuration not stated) | 0.28 °C
CCNS(=O)(=O)c1ccc(NC(=O)Nc2cccc(OC)c2)cc1 | active: 1.39 °C
CCOc1ccccc1C1C(C#N)=C(N)Oc2cc(N(C)C)ccc21 (configuration not stated) | 0.29 °C
OCc1ccc(OCc2ccc(Cl)c(Cl)c2)c(Br)c1 | 0.77 °C
NS(=O)(=O)c1ccc(NC(=S)Nc2ccc(OCc3ccccc3)cc2)cc1 | inactive: -0.07 °C
COc1ccc(NC(=O)CSC2CC(=O)N(c3ccccc3)C2=O)cc1Cl (configuration not stated) | 0.3 °C
Oc1ccc(CNc2cccc(Br)c2)c2cccnc12 | 0.02 °C
CCC1=[N+](c2nc(-c3ccc([N+](=O)[O-])cc3)nc3ccccc23)CCCC1 | 0.02 °C
COc1cc(/C=C2\N=C(SC)SC2=O)ccc1OCc1ccccc1 | 0.62 °C
NC(=O)c1c(NC(=O)C#Cc2ccccc2)sc2c1CCC2 | 0.39 °C
Cc1ccc2nc(NC(=O)CC(C)c3ccccc3)sc2c1 (configuration not stated) | inactive: -0.03 °C
S=C(Nc1ccc2nc(-c3ccco3)c(-c3ccco3)nc2c1)N1CCOCC1 | inactive: -0.22 °C
Cc1cc(=O)[nH]c(SCC(=O)Nc2ncc(Cc3cccc(Cl)c3Cl)s2)n1 | 0.11 °C
O=C(CN1C(=O)C2C3C=CC(C3)C2C1=O)Nc1ccc2c(c1)oc1ccccc12 (configuration not stated) | 0.02 °C
CC(=O)Nc1cccc(NC(=O)COc2ccc(C)cc2Br)c1 | 0.24 °C
CC(=O)Nc1ccc(C(=O)CSc2cc(C)c3cccc(C)c3n2)cc1 | inactive: -0.04 °C
O=C(/C=C/c1ccco1)Nc1ccc(Br)c(Cl)c1 | 0.02 °C

SMILES | thermal shift dTm
Cc1cc(C(=O)OCC(=O)Nc2cccc(C(F)(F)F)c2)c2ccccc2n1 | inactive: -0.18 °C
Clc1ccc(-c2nc(Nc3ccc4c(c3)OCCO4)c3ccccc3n2)cc1 | 0.11 °C
CC(=O)Oc1ccc(-c2csc(Nc3ccccc3F)n2)cc1 | 0.35 °C
COc1ccc(C)cc1NC(=O)Nc1ccc(OC(F)F)c(Cl)c1 | inactive: -0.79 °C
Cc1[nH]nc(-c2ccc(O)cc2O)c1-c1ccc(Br)cc1 | 0.54 °C
Cc1cc(Cl)ccc1OCCCC(=O)Nc1ccc(C(N)=O)cc1 | inactive: -0.23 °C
Cc1cccc2cc3c(NC(=O)c4cccs4)nn(C)c3nc12 | 0.24 °C
O=S(=O)(c1ccc(NC(=S)Nc2ccc(F)c(Cl)c2)cc1)N1CCCC1 | 0.86 °C
CCc1ccc(-n2c(CCC(=O)O)ccc2-c2ccc(Br)cc2)cc1 | 0.2 °C
c1ccc(CCNc2nc3ccccc3[nH]2)cc1 | inactive: -0.09 °C
Cc1[nH]nc(-c2ccc(O)cc2O)c1-c1cnn(-c2ccccc2)c1 | active: 1.63 °C
COc1ccccc1-c1cn(S(=O)(=O)c2cc(Cl)sc2Cl)nc1N | 0.1 °C
CCOC(=O)Nc1ccc(-n2ccc(C)n2)cc1 | inactive: -0.04 °C
Cc1nc(-c2ccc(C(=O)Nc3ccc(F)cc3)cc2)cs1 | 0.15 °C
Cc1ccc(C(=O)N/C(=C/c2ccc(-c3ccc(Cl)cc3Cl)o2)C(=O)NCCCO)cc1 | 0.1 °C
Nc1nc(-c2ccc(NC(=O)c3ccc(Cl)cc3)cc2)cs1 | 0.53 °C
Cc1ccc(-c2noc(CNC(=O)C(c3ccccc3)c3ccccc3)n2)cc1 | 0.39 °C
COc1cccc(C2C(C#N)=C(N)Oc3c2ccc2ccccc32)c1OC (configuration not stated) | 0.15 °C
CCCN1C(=O)C(c2c[nH]c3ccccc23)(c2c[nH]c3ccccc23)c2ccccc21 | 0.12 °C

Reference: PubChem BioAssay AID1347422 (Sanford-Burnham Center for Chemical Genomics, 2020)
